These are yes or no findings as the source states them, for the method shown. In cells and extracts the contact can be indirect. These calls come from enrichment with a bait or labelling near it, and not all partners need be listed.
Target: T1, ZDHHC19-TurboID (mouse) (UniProt Q810M5)
T1 sequence: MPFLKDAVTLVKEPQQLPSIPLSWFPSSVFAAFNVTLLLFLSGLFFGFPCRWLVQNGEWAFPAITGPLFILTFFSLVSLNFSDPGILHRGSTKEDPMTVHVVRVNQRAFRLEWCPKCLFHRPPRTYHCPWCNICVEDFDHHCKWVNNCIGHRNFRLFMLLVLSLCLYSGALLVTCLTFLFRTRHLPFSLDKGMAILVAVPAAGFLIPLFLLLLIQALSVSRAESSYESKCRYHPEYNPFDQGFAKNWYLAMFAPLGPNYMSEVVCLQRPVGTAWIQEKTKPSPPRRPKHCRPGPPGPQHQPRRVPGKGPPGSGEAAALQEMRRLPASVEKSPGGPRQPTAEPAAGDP
Experiment: proximity labelling; ZDHHC19-TurboID in HEK293T cells, 500 μM D-biotin 40 min 37°C; streptavidin-coated magnetic beads; blot with anti-p62 antibody

binding: binds
Substance: endogenous p62 (HEK293T cells) (from UniProt Q13501 1-440)

Source: PMC10552648
